Experimental data published in the supplement of paper PMC11150407.
About 45 (2%) of roughly 3,000 compounds showed an effect of 50% or more. This is one part of the list.

Test system: MOLM1 and UCSD/AML1 (averaged)
Test: cell viability relative to DMSO control (POC); higher = less growth inhibition
Conditions: 1 µM; 72 h
Protocol: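 Primary viability screen in the 3q26 EVI1-high AML cell lines MOLM1 and UCSD/AML1, compounds at 1 uM for 72 h. ATP CellTiter-Glo read-out given as percent viable over DMSO control (POC), averaged over duplicates. This mapping covers the TimTec NDL-3000 natural derivative library, whose compounds are identified by TimTec catalogue codes (ST...).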

Row | Compound | cell viability [%]
1 | CCOc1ccc2oc(=O)cc(CN3CCN(CC(=O)Nc4ccc(F)cc4)CC3)c2c1 | 100
2 | CCOC(=O)c1ccc(NC(=O)CCC(=O)O)cc1 | 105
3 | COc1ccc2c(c1)c(CC(=O)NCCOc1c(C)cccc1C)c(C)n2C(=O)c1ccc(Cl)cc1 | 86.2
4 | Cc1c(-c2ccccc2Cl)c(=O)oc2cc(O)ccc12 | 92.8
5 | COCc1nnc(SCC(=O)c2ccc3c(c2)OCO3)n1-c1ccccc1 | 106
6 | Cn1c2c(c(=O)n(C)c1=O)C(=O)C(=O)N(Cc1ccccc1)C2=O | 97.6
7 | Cc1cc(C(=O)c2ccccc2)ccc1OC(=O)CN1C(=O)c2ccccc2C1=O | 94.9
8 | COc1cccc(-c2oc3ccc(OC)cc3c(=O)c2O)c1 | 85.1
9 | CCOC(=O)N1CCc2[nH]c3ccc(C)cc3c2C1 | 42.4
10 | COc1cc(C)c(C)cc1S(=O)(=O)NCCc1c(C)[nH]c2ccc(F)cc12 | 92.9
11 | Cc1ccc(O)c(N=Cc2c(O)c(O)c(C(C)C)c3cc(C)c(-c4c(C)cc5c(C(C)C)c(O)c(O)c(C=Nc6cc(C)ccc6O)c5c4O)c(O)c23)c1 | 109
12 | COc1cc(C=O)ccc1OCC(=O)N1CCCCC1 | 101
13 | CCCCCCCCCC(=O)Oc1c(-c2ccc(OC)cc2)oc2ccccc2c1=O | 102
14 | O=C(O)C(O)Cc1ccccc1 (stereo unspecified) | 104
15 | CCOC(=O)c1c(CNc2cccc(Cl)c2)n(-c2ccccc2)c2cc(Br)c(OC)cc12 | 109
16 | COc1cc(OC)cc(C(=O)NCCCn2c3ccccc3c3ccccc32)c1 | 100
17 | CCOC(=O)C1=C(N)Oc2c(oc(CO)cc2=O)C1c1ccccc1[N+](=O)[O-] (stereo unspecified) | 94.8
18 | COc1ccc(C(=O)Nc2ccc3c(c2)CCCN3C(=O)C(C)(C)C)cc1OC | 96.1
19 | Cc1cc2c(C(C)C)c(O)c(O)c(C=NC3CCCCC3Cc3ccco3)c2c(O)c1-c1c(C)cc2c(C(C)C)c(O)c(O)c(C=NC3CCCCC3Cc3ccco3)c2c1O (stereo unspecified) | 94.9
20 | CCN(CC)CCOC(=O)C1(C)CCC2(C)CCC3(C)C(=CC(=O)C4C5(C)CCC(OC(C)=O)C(C)(C)C5CCC43C)C2C1 (stereo unspecified) | 85.1
21 | Cc1ccc(-n2c(SCC(=O)N3CCOc4ccc(C)cc43)nc3c(=O)[nH]cnc32)cc1 | 88.2
22 | O=C1/C(=C\c2ccc(O)cc2)N=C(c2ccccc2)N1Nc1nc(Nc2ccc([N+](=O)[O-])cc2O)nc(Nc2ccc([N+](=O)[O-])cc2O)n1 | 74.5
23 | COc1cc(C(C)=O)ccc1OCc1ccccc1Cl | 99.7
24 | CNC(=O)c1cc(OC)c(OC)c(OC)c1[N+](=O)[O-] | 103
25 | O=C(OCC1CCCN2CCCCC12)c1ccccc1O (stereo unspecified) | 96.9
26 | CCN(CC)C(=O)c1cc(=O)n(CC(=O)Nc2ccc(Cl)cc2)c2ccccc12 | 98

Row | Compound | cell viability [%]
27 | COc1ccc(/C=C/C(=O)c2ccccc2)cc1COc1ccc(NC(C)=O)cc1 | 40
28 | CC1CC[C@@H](C(C)(C)c2ccccc2)C(O)C1 (stereo partly specified) | 101
29 | Cc1ccc(NC(=O)CSc2nc3c(=O)[nH]cnc3n2-c2ccccc2)cc1F | 103
30 | Cc1[nH]c2ccc(OC(F)(F)F)cc2c1CCNC(=O)C1CC=CCC1C(=O)O (stereo unspecified) | 97.6
31 | COC(=O)/C(C#N)=C\c1ccc(OC(C)=O)c(OC)c1 | 102
32 | CC(NC(=O)Nc1ccccc1[N+](=O)[O-])C(=O)O (stereo unspecified) | 104
33 | COc1cc(C(=O)Nc2cc(C)c(OCC(=O)N3CCOCC3)c(C)c2)cc(OC)c1OC | 99.9
34 | COc1ccc(C(=O)NC(CC(C)C)C(=O)O)cc1 (stereo unspecified) | 100
35 | COc1ccc(/C=C/C(=O)Nc2ccc(NC(C)=O)cc2)cc1 | 98.9
36 | Cc1cc(C)c2c(O)c(-c3ccccc3)c(=O)[nH]c2c1 | 103
37 | COc1ccc(C(=O)NCN2CCN(c3cccc(Cl)c3)CC2)cc1OC | 92.4
38 | Cc1c(Cl)cccc1NC(=O)CSc1nc2c(=O)[nH]cnc2n1C | 97.1
39 | O=C(OC1C(COC(=O)c2ccc(Cl)cc2Cl)OC(n2ccc(=O)n(C(=O)c3ccc(Cl)cc3Cl)c2=O)C1OC(=O)c1ccccc1)c1ccccc1 (stereo unspecified) | 94.8
40 | CNC(=O)c1cc(=O)n(CC(=O)Nc2ccc(Br)cc2)c2ccccc12 | 92.6
41 | COc1cc(C(=O)OCc2ccc(F)cc2)c(Br)c(OC)c1OC | 101
42 | CCCC1=C(C(=O)OCC)C(c2cc(Br)c(O)c(OC)c2)NC(=O)N1 (stereo unspecified) | 113
43 | O=C(CC(Nc1ccc(I)cc1)c1ccccc1)c1ccc2c(c1)OCO2 (stereo unspecified) | 95.7
44 | C=CC[C@H]1Cc2c(Br)cc(Br)c(Br)c2[C@H](CC=C)N1 | 95.9
45 | CCOc1cc(C2C(C(=O)OCCc3ccccc3)=C(C)NC3=C2C(=O)CC(c2ccc(Cl)cc2)C3)ccc1O (stereo unspecified) | 99.9
46 | Cn1c(SCc2c(F)cccc2Cl)nc2c(=O)[nH]cnc21 | 93.4
47 | O=C(c1cnn2c(C(F)(F)F)cc(-c3ccc(Br)cc3)nc12)N1CCc2ccccc2C1 | 102
48 | COc1cc(C2C3CCCCC3(O)CCN2CC(=O)Nc2ccc(C)cc2)cc(OC)c1OC (stereo unspecified) | 90.8
49 | CC(=O)Oc1cc(OC(C)=O)c2c(c1)O[C@H](c1ccccc1)CC2=O | 88.6
50 | N=C(N=C(N)N)N1CCSCC1 | 100
51 | CCOc1ccccc1NC(=O)CSc1nc2c(=O)[nH]cnc2n1-c1ccc(C)cc1 | 103
52 | COc1ccc(C(=O)CSc2nc(-c3ccccc3)cc(-c3ccc(F)cc3)c2C#N)cc1OC | 93.4

Row | Compound | cell viability [%]
53 | O=c1c(O)c(-c2ccc(O)cc2)oc2ccccc12 | 96.8
54 | Cc1ccc(-c2nc(CSc3nc4c(=O)[nH]c(C)nc4n3C)c(C)o2)cc1 | 98.6
55 | O=C1O[C@@H]2[C@@H](O)[C@H](O)O[C@@H]2[C@H]1O | 97.7
56 | COc1cccc(OC)c1OCc1cc(=O)[nH]c2ccccc12 | 101
57 | O=C(CSc1nc2c(=O)[nH]cnc2n1-c1ccccc1)Nc1ccc(F)c(Cl)c1 | 97.8
58 | COc1ccc2occ(C=O)c(=O)c2c1 | 120
59 | COc1cccc(-c2oc3ccccc3c(=O)c2O)c1OC | 90.6
60 | Cc1ccc2c(=O)cc(-c3c(Cl)cccc3Cl)oc2c1 | 119
61 | N=c1ccc2c(-c3ccccc3C(=O)O)c3ccc(N)cc3oc-2c1 | 93.1
62 | COc1cc(C(=O)NC(c2ccccc2)c2c(O)ccc3ccccc23)cc(OC)c1OC (stereo unspecified) | 93
63 | CC1CCCC(C)N1Cc1c(O)ccc2c(-c3ccccc3)cc(=O)oc12 (stereo unspecified) | 89.9
64 | COc1cc(CCC(=O)Nc2sc(C)c(C)c2C#N)cc(OC)c1OC | 101
65 | CC(C)(C)CC(C)(C)NC(=O)CSc1ncnc2nc[nH]c12 | 97
66 | Cc1[nH]c2c(C)ccc(F)c2c1CCNC(=O)c1ccc(Br)cc1 | 107
67 | NC(Cc1ccccc1)C(=O)O (stereo unspecified) | 95.1
68 | CC(C)CC(N)C(N)=O (stereo unspecified) | 94.1
69 | O=c1oc2ccccc2c(NCCOc2ccccc2)c1[N+](=O)[O-] | 97.5
70 | O=C(/C=C/c1ccccc1)OCCN(C1=NS(=O)(=O)c2ccccc21)c1ccccc1Cl | 99.3
71 | Cc1cccc(Cn2c(SCC(O)CO)nc3c2c(=O)[nH]c(=O)n3C)c1 (stereo unspecified) | 103
72 | COc1cc(C=O)ccc1OC(=O)N1CCOCC1 | 90
73 | CCc1ccc2oc(=O)cc(CN3CCN(C(=O)c4ccco4)CC3)c2c1 | 105
74 | COc1ccc(CCNC(=O)CCCCl)cc1OC | 94.6
75 | Nc1nc2c(ncn2C2OC(COP(=O)(O)O)C(O)C2O)c(=O)[nH]1 (stereo unspecified) | 101
76 | COc1ccc(C(=O)NCCc2c(C)[nH]c3c(Cl)cccc23)cc1OC | 88.4
77 | CCOc1cc(/C=C2\Oc3ccc(C(=O)OC)cc3C2=O)ccc1O | 16.8
78 | COc1ccc(/C=C2\Oc3cc(OCC(=O)OC(C)C)ccc3C2=O)cc1 | 92

3 entries out of the list, ordered by SMILES length, low to high.
Row | Compound | cell viability [%]
78 | COc1ccc(/C=C2\Oc3cc(OCC(=O)OC(C)C)ccc3C2=O)cc1 | 92
75 | Nc1nc2c(ncn2C2OC(COP(=O)(O)O)C(O)C2O)c(=O)[nH]1 (stereo unspecified) | 101
62 | COc1cc(C(=O)NC(c2ccccc2)c2c(O)ccc3ccccc23)cc(OC)c1OC (stereo unspecified) | 93

More records follow.

Row | Compound | cell viability [%]
79 | COc1ccc2c(=O)cc(C(Cl)(Cl)Cl)oc2c1 | 5.13
80 | N#CC1=C(N)Oc2c(oc(CO)cc2=O)C1c1ccnc2ccccc12 (stereo unspecified) | 103
81 | CCCc1ccc(OCCn2c(C)c(C(=O)OCc3ccccc3)c3cc(O)c4ccccc4c32)cc1 | 91.9
82 | O=c1c(Cc2ccccc2)c(O)c2ccccc2n1Cc1ccccc1 | 95.6
83 | CCOc1ccc(-c2nc(CSc3nc4c(=O)[nH]cnc4n3-c3ccc(C)cc3)c(C)o2)cc1 | 103
84 | O=c1[nH]c(=O)n(-c2ccccc2)c2c1C(C(F)(F)F)(C(F)(F)F)N=C(c1cccs1)N2 | 96.5
85 | CCCNC(=O)c1cc(=O)n(CC(=O)Nc2c(C)cccc2C)c2ccccc12 | 91
86 | Cc1cc2c(c(O)c1-c1c(C)cc3c(c1O)/C(=C/Nc1c(C)n(C)n(-c4ccccc4)c1=O)C(=O)C(O)=C3C(C)C)/C(=C/Nc1c(C)n(C)n(-c3ccccc3)c1=O)C(=O)C(O)=C2C(C)C | 84.6
87 | O=C(/C=C/c1ccc(Br)cc1)c1ccccc1O | 94.6
88 | N#Cc1nc2ccccc2n1C(=O)CN1CCc2ccccc2C1 | 92.6
89 | Cc1cc(=O)[nH]c2ccc(S(=O)(=O)Nc3ccc4c(c3)OCO4)cc12 | 100
90 | O=c1[nH]c(=O)n(C(c2ccccc2)c2ccccc2)cc1Br | 117
91 | COc1cc(C(=O)OCc2ccccc2Cl)cc(OC)c1OC | 95.9
92 | CCn1c(SCc2nc(-c3cccc(C)c3)oc2C)nc2c(=O)[nH]cnc21 | 103
93 | CCc1ccc2[nH]c(=O)c(C(c3nnnn3CCOC)N(Cc3ccccc3)Cc3ccccc3Cl)cc2c1 (stereo unspecified) | 99.4
94 | CSc1cccc(NC(=O)CSc2nc3c(=O)[nH]cnc3n2-c2ccc(C)cc2)c1 | 105
95 | N=c1oc2ccc(Br)cc2cc1C(=O)Nc1ccc(F)cc1 | 112
96 | c1ccc2c(c1)CN1CCCC1=N2 | 97.5
97 | COc1ccc(C(=O)/C=C/c2ccc(OC)c(Cn3nnc4ccccc43)c2)cc1 | 80
98 | COC(=O)c1ccc(C2CC(=O)Nc3c2cc(Br)c2ccccc32)cc1 (stereo unspecified) | 96.9
99 | CC1(C)S[C@@H]2[C@H](NC(=O)Cc3ccccc3)C(=O)N2[C@H]1C(=O)O.CCN(CC)CCOCc1ccc(N)cc1 | 108
100 | O=C(OCCNc1nc(-c2ccccc2)nc2ccccc12)c1cccnc1 | 92.7
101 | O=C(O)c1cccc(C(=O)O)n1 | 106

In another format: results already given.
Row	Compound	cell viability [%]
92	CCn1c(SCc2nc(-c3cccc(C)c3)oc2C)nc2c(=O)[nH]cnc21	103
93	CCc1ccc2[nH]c(=O)c(C(c3nnnn3CCOC)N(Cc3ccccc3)Cc3ccccc3Cl)cc2c1 (stereo unspecified)	99.4
